± gives the standard deviation. This is a selection; strong and weak results do not stand in their true shares. The uncertainty is large for many entries. This is one part of the list.
Legend:
[1] = test system: MILI (PIWIL2) piRISC loaded with L1MC piRNA (26 nt); test: pre-steady-state target cleavage rate (min^-1); higher = faster piRNA-guided slicing of the target; conditions: guide: L1MC piRNA 5'p-UAACUAAAUACUAUGCAAGCUGUAGG
Procedure, shortened: (§1)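 The pre-steady-state cleavage rate was derived from a burst-and-steady-state fit of Cleave-'n-Seq data. For these assays, 1 nM active affinity-purified piRISC loaded with a single synthetic guide was mixed with […] a transcribed, DNA-blocked target RNA library in HEPES–potassium acetate buffer at 33 °C, with or without 500 nM GTSF1 partner protein, for 0–8 or 0–960 min. Sequencing counts of uncleaved targets were normalised to depth and to weakly complementary targets, and k3 was capped at 0.0001 min^-1 after three trials were pooled.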

[2] = test system: MIWI (PIWIL1) piRISC loaded with L1MC piRNA (30 nt); test: as above; conditions: guide: L1MC piRNA 5'p-UAACUAAAUACUAUGCAAGCUGUAGGUCCU
Procedure, shortened: as §1

[3] = test system: EfPiwi piRISC loaded with L1MC piRNA (26 nt); test: pre-steady-state target cleavage rate (min^-1); guide: L1MC piRNA 5'p-UAACUAAAUACUAUGCAAGCUGUAGG; MIWI and MILI are mouse PIWI proteins and EfPiwi is from a freshwater sponge; tags in brackets are library labels; higher = faster piRNA-guided slicing of the target
Procedure, shortened: as §1

[4] = auxiliary factor: none (no GTSF1)
[5] = auxiliary factor: 500 nM Ephydatia muelleri Gtsf1
[6] = auxiliary factor: none (no Gtsf1)
[7] = auxiliary factor: 500 nM mouse GTSF1

Sequence	pre-steady-state target cleavage rate [1, 4]	pre-steady-state target cleavage rate [2, 4]	pre-steady-state target cleavage rate [3, 5]	pre-steady-state target cleavage rate [3, 6]	pre-steady-state target cleavage rate [1, 7]	pre-steady-state target cleavage rate [2, 7]
UCCUCCUACAGCAAGCAUAGUAUUUAGUAA	0.00281 ± 0.0029	0.00166 ± 0.0032	0.00371 ± 0.0026			
UCCUGGAUGAGGUUGCAUAGAAUUUAGUUA	0.00198 ± 0.0032	0.00253 ± 0.0036	0.00108 ± 0.0059			
UCCUCCUACAGCUUGCACUAGUAUUUAGUUA	0.00175 ± 0.0037	0.00103 ± 0.0062	0.0137 ± 0.0056			
UCCUGGAACAGCUUGCAUAGAAUUUUCAAA	0.000835 ± 0.0061	0.00179 ± 0.0045	0.00175 ± 0.003			
UCCUGGAUGUGCUUCCAAAGUAUUUAGUUA	0.00206 ± 0.0031	0.000848 ± 0.0061	0.00463 ± 0.0046			
UCCUGGAUCUCCUUGCAUAGUAUUUAGAAA	0.000908 ± 0.0064	0.00177 ± 0.0043	0.00628 ± 0.0051			
UCCUGGUACAGCUUGCAUAGUAUUAUGUAA	0.000549 ± 0.012	0.00203 ± 0.0046	0.00101 ± 0.006			
UCCUGGAUCAGCUUGCAUAGCUAUUUAGUUA	0.00121 ± 0.0057	0.00185 ± 0.0049	0.000647 ± 0.0041			
UCCUCCUACAGCUUGCAAUGUAUUUUCAAA	0.000936 ± 0.0045	0.000726 ± 0.0062	0.0017 ± 0.0056			
UCCUGGAUGUCGAAGGAUAGUAUUUUGUUA	0.000123 ± 0.037	< 0.0001		< 0.0001		
UCCUGCUACAGCUUCCAUAGUAUUUACAAA	0.00067 ± 0.009	0.000867 ± 0.011	0.00279 ± 0.0021			
UCCUGGAUGUCGAACCAUGUAUUUAGUUA	0.000178 ± 0.016	0.000417 ± 0.012	0.00037 ± 0.013			
UCCUGGAUGUCGAACGUAUCUAUUUAUGUUA				0.000228 ± 0.032	0.00032 ± 0.025	0.000253 ± 0.033
UCCUGGAACAGCUUGCAUAGUAUUAUGUAA	0.000566 ± 0.0076	0.00122 ± 0.0047	0.00172 ± 0.0024			
UCCUGGUACAGGUUCCAUAGUAUUUAGUUA	0.00218 ± 0.0049	0.000802 ± 0.0097	0.000681 ± 0.0058			
UCCUGGUACAGCUUGCAUUCUAUUUAGAAA	0.00155 ± 0.0073	0.000332 ± 0.0089	0.000329 ± 0.015			
UCCUGCUACAGCUUGCAAUCUAUUUAGAAA	0.000253 ± 0.012	0.000781 ± 0.012	0.00024 ± 0.014			
UCCUGGAACAGCUUGCAUAGUUAAUACAAA	0.0013 ± 0.0046	0.00131 ± 0.0059	0.00174 ± 0.0047			
UCCUGGAUGUCGUUGCACUAGUAUUUAGUUA	0.000785 ± 0.008	0.000819 ± 0.011	0.000256 ± 0.013			
UCCUGGAUGUCCUUGCAUAGUAUUUUCAAA	0.00132 ± 0.0042	0.00102 ± 0.0064	0.00201 ± 0.0042			
UCCUGGAUGUGCUUGCAUAGUAUAAUGUAA	0.000877 ± 0.0084	0.00227 ± 0.0038	0.000999 ± 0.0045			
UCCUGGAUGUCGAAGCAUAGUAUUUAGAUUA	0.000177 ± 0.018	0.000153 ± 0.021	0.000755 ± 0.0065			
UCCUGGUACAGCUUCGAUAGUAUUUUCAAA	0.00112 ± 0.0063	0.00091 ± 0.008	0.000683 ± 0.0092			
UCCUCCUACAGCUUCCAUAGUAUUAAGUUA	0.000431 ± 0.012	0.000995 ± 0.0054	0.00169 ± 0.0021			
UCCUGGUACAGCUACGAUAGUAUUUAGAAA	0.000687 ± 0.0086	0.000888 ± 0.0087	0.000319 ± 0.011			

Sequence	pre-steady-state target cleavage rate [1, 4]	pre-steady-state target cleavage rate [2, 4]	pre-steady-state target cleavage rate [3, 5]	pre-steady-state target cleavage rate [3, 6]	pre-steady-state target cleavage rate [1, 7]	pre-steady-state target cleavage rate [2, 7]
UCCUGGAACAGGAAGCAUAGUAUUUUCAAA	0.000435 ± 0.0097	0.00069 ± 0.0078	0.000288 ± 0.01			
UCCUGGAUGUGCUUGCAUAGUAAUAAGUUA	0.00119 ± 0.0059		0.000383 ± 0.014			0.00117 ± 0.0093
UCCUGGAUGUCCUUGCAUAGUAUAAUGUAA	0.000595 ± 0.011	0.000565 ± 0.018	0.000222 ± 0.015			
UCCUGGAUCAGCUUGCUUAGUAUUUUCAAA	0.000602 ± 0.0095	0.00115 ± 0.0062	0.00161 ± 0.004			
UCCUGGAUCAGCUUGGUUAGUAUUUAGAAA	0.00163 ± 0.0042	0.00142 ± 0.0047	0.00284 ± 0.0034			
UCCUGGAUCAGCUUGGUAAGUAUUUAGAAA	0.000409 ± 0.013	0.000967 ± 0.0088	0.000338 ± 0.0084			
UCCUGCUACAGCUUGCAUAGUUAUUAGUAA	0.000886 ± 0.0068	0.00267 ± 0.0029	0.00306 ± 0.0017			
UCCUGCUACAGGUUGCAUAGUAUUUUCAAA	0.000789 ± 0.0073	0.000921 ± 0.0069	0.00243 ± 0.0019			
UCCUGCUACAGCUACCAUAGUAUUUAGAAA	0.000922 ± 0.0059	0.000353 ± 0.012	0.00153 ± 0.0029			
UCCUGGAUGUCGAUUCAUAGUAUUUAGUUA	0.00118 ± 0.0058	0.000471 ± 0.017	0.000464 ± 0.0065			
UCCUCCUACAGCAUGCAUAGUAUUUACAAA	0.00134 ± 0.0037	0.00139 ± 0.003	0.00397 ± 0.0026			
UCCUCCUACAGCUUCCAUAGAAUUUAGUUA	0.000691 ± 0.0074	0.00131 ± 0.0034	0.00186 ± 0.0019			
UCCUGGAUGUCGUUGCAUAGAUAAAUCAAA [g11:g18:cont:t1A]	0.00048 ± 0.0086	0.000576 ± 0.0076	< 0.0001			
UCCUCCUACCGCUUGCAUAGUAUUUAGUUA			0.0865 ± 0.023		0.305 ± 0.015	1.34 ± 0.062
UCCUGGAUGUCGAAGCUUAGUAUUUAGAUA	0.000271 ± 0.014	0.000488 ± 0.011	0.000166 ± 0.018			
UCCUGGUACAGCUUGCAUACAUAAAUCAAA [g12:g24:cont:t1A]	0.000959 ± 0.0073	0.000352 ± 0.0092		0.000366 ± 0.018		
UCCUGGAUGUCCUUGCAUAGUAUUAUGUAA	0.000525 ± 0.012	0.0007 ± 0.011	0.00104 ± 0.0068			
UCCUCCUACAGCUUGCAUAGUUAUUUCAAA	0.0012 ± 0.0045	0.000304 ± 0.0094	0.00266 ± 0.0043			
UCCUGGAUGUGCUACCAUAGUAUUUAGAAA	0.000289 ± 0.014	0.000541 ± 0.011	0.00141 ± 0.0064			
UCCUCCUACAGCUACGAUAGUAUUUAGUUA	0.00168 ± 0.0034	0.000629 ± 0.0065	0.00503 ± 0.0031			
UCCUCCUACUCGUUGCAUAGUAUUUAGAAA	0.00113 ± 0.0049	0.00152 ± 0.0035	0.004 ± 0.0035			
UCCUGGAUCAGCUUGCAUAGAUAUUAGUUA	0.00158 ± 0.0038	0.000945 ± 0.0071		0.000338 ± 0.017		
UCCUGGAUGUCCUUGCAUAGUAUUUACUAA	0.000853 ± 0.0054	0.00123 ± 0.0046	0.00221 ± 0.0033			
UCCUGGAUGUCGAACGUUAGUAUUUAAGUUA			0.00035 ± 0.017		0.000411 ± 0.015	0.000353 ± 0.015
UCCUGGUACACGAUGCAUAGUAUUUAGAAA	0.00308 ± 0.0037	0.0026 ± 0.004	0.00253 ± 0.0029			

Part of the list above, in markdown.

| Sequence | pre-steady-state target cleavage rate [1, 4] | pre-steady-state target cleavage rate [2, 4] | pre-steady-state target cleavage rate [3, 5] | pre-steady-state target cleavage rate [3, 6] | pre-steady-state target cleavage rate [1, 7] | pre-steady-state target cleavage rate [2, 7] |
| --- | --- | --- | --- | --- | --- | --- |
| UCCUGGAUGUGCUUGCAUAGUAUAAUGUAA | 0.000877 ± 0.0084 | 0.00227 ± 0.0038 | 0.000999 ± 0.0045 |  |  |  |
| UCCUCCUACAGCAUGCAUAGUAUUUACAAA | 0.00134 ± 0.0037 | 0.00139 ± 0.003 | 0.00397 ± 0.0026 |  |  |  |
| UCCUGGAUGUGCUACCAUAGUAUUUAGAAA | 0.000289 ± 0.014 | 0.000541 ± 0.011 | 0.00141 ± 0.0064 |  |  |  |
| UCCUGGUACACGAUGCAUAGUAUUUAGAAA | 0.00308 ± 0.0037 | 0.0026 ± 0.004 | 0.00253 ± 0.0029 |  |  |  |

Reference: the supplement of paper PMC10338343
